Here are results for 27 compounds from PubChem BioAssay AID256 (DTP/NCI, 2004).

SMILES strings stand for the structures. The list is a part of this screen's results and no random one: it is rich in T/C values a quarter to a half above the control, in often repeated tests (any T/C) and in doses without a T/C. Other doses and runs of a compound stand elsewhere. T/C gives the treated animals as a percentage of the vehicle group. Some entries give survivors of the animals treated and no T/C: the source files T/C as zero there, which appears to mark a toxic dose or a test without result, not a measured value. Some doses without a T/C left all or most animals alive at the check, yet need not have been tolerated: survival well below the control is almost never listed, so the zero probably covers shortened survival too. Counts of survivors are from the toxicity check (mostly the fifth day) where no day follows; animals may have died later. Schedule codes are those of the source, taken here to give the interval after Q, in days (D) or hours (H), and the number of doses after X. Some schedule codes hold Z or #, which are not explained here. Some entries were tested several times; their values stand side by side, smallest first. Some structures stand for samples that the source files as different forms (salt, stereo form or complex); doses refer to the form tested. For survival time, this PubChem deposit counts one and a half times the control or more as active, and values a quarter to a half above the control carry no call in these data; other NCI protocols may use other cut-offs. Some T/C values are followed by the survivors on the day toxicity was checked, most often the fifth; without a count, all were alive then. Counts like (3×) give the number of equal values in this list.

For this experiment, the system named is CD2F1 mice, L1210 leukemia ip, survival T/C. As to the kind of experiment: NCI In Vivo Anticancer Drug Screen. Data for tumor model L1210 Leukemia (intraperitoneal) in CD2F1 (CDF1) mice. The settings on record: higher T/C = longer survival. Put shortly:
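In this screen, transplantable tumors were grown in mice given either the compound or its vehicle. Results were expressed as the treated measurement relative to the control measurement.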

Setting [1] is: T/C endpoint: mean survival time, dose: 200.0 mg/kg/injection, schedule: Q04DX003 (ip), vehicle: saline.
[2] abbreviates: T/C endpoint: mean survival time, dose: 400.0 mg/kg/injection, schedule: Q04DX003 (ip), vehicle: saline with Tween-80.
[3] abbreviates: T/C endpoint: mean survival time, dose: 400.0 mg/kg/injection, schedule: Q04DX003 (ip), vehicle: Klucel (hydroxypropylcellulose) (HPC).
Where [4] appears, read: T/C endpoint: mean survival time, dose: 400.0 mg/kg/injection, schedule: Q01DX001 (ip), vehicle: saline.
Setting [5] is: T/C endpoint: mean survival time, dose: 400.0 mg/kg/injection, schedule: Q01DX001 (ip), vehicle: saline with Tween-80.
The mark [6] stands for this setting: T/C endpoint: mean survival time, dose: 400.0 mg/kg/injection, schedule: Q04DX003 (ip), vehicle: saline.
[7] abbreviates: T/C endpoint: mean survival time, dose: 200.0 mg/kg/injection, schedule: Q01DX009 (ip), vehicle: saline.
Where [8] appears, read: T/C endpoint: mean survival time, dose: 200.0 mg/kg/injection, schedule: Q01DX001 (ip), vehicle: saline with Tween-80.
[9] abbreviates: T/C endpoint: median survival time, dose: 400.0 mg/kg/injection, schedule: Q01DX005 (ip), vehicle: saline with Tween-80.

As for `CN=NNc1ccc(C(=O)NC(C)C)cc1`, the T/C reads like this: (T/C endpoint: mean survival time, dose: 100.0 mg/kg/injection, schedule: Q01DX009 (ip), vehicle: DMSO) 149 % of control; (T/C endpoint: mean survival time, dose: 100.0 mg/kg/injection, schedule: Q01DX009 (ip), vehicle: other) 130 % of control; (T/C endpoint: mean survival time, dose: 200.0 mg/kg/injection, schedule: Q01DX009 (ip), vehicle: other) 133 % of control [5 of 6 alive] (2×). Further, the survivor count runs as follows: (T/C endpoint: mean survival time, dose: 400.0 mg/kg/injection, schedule: Q01DX009 (ip), vehicle: DMSO) 2 of 6; (T/C endpoint: mean survival time, dose: 400.0 mg/kg/injection, schedule: Q01DX009 (ip), vehicle: other) 1 of 6 and 2 of 6.
Regarding `Cc1cc(C)[nH]c(=S)n1.[Pt]`, the T/C was 129 % of control (T/C endpoint: mean survival time, dose: 25.0 mg/kg/injection, schedule: Q04DX003 (ip), vehicle: saline) and 147 % of control under setting [1].
Consider `CCCCCCCc1c(C)c2ccc(OC)cc2[nH]c1=O`, for which the survivor count under setting [2] is on record as 3 of 6.
Take `CC([NH-])CC[NH-].[Br][Pt+2][Br]` (stereo unspecified): the T/C runs as follows: (T/C endpoint: mean survival time, dose: 6.25 mg/kg/injection, schedule: Q04DX003 (ip), vehicle: saline with Tween-80) 130 % of control; (T/C endpoint: mean survival time, dose: 12.5 mg/kg/injection, schedule: Q04DX003 (ip), vehicle: saline with Tween-80) 125 % of control; (T/C endpoint: mean survival time, dose: 25.0 mg/kg/injection, schedule: Q04DX003 (ip), vehicle: saline with Tween-80) 146 % of control.
In the case of `NC(=S)NNC(=O)c1ccccc1`, under setting [3], the survivor count is 2 of 6.
As for `Nc1nc(N)c2nc(CNc3ccc(C(=O)NC(CCC(=O)O)C(=O)O)cc3)cnc2n1` (stereo unspecified), the survivor count reads like this: (T/C endpoint: mean survival time, dose: 2.6 mg/kg/injection, schedule: Q01DX009 (ip), vehicle: alkali diluted with saline) 6 of 6; (T/C endpoint: mean survival time, dose: 4.0 mg/kg/injection, schedule: Q01DX009 (ip), vehicle: alkali diluted with saline) 5 of 6; (T/C endpoint: mean survival time, dose: 6.0 mg/kg/injection, schedule: Q01DX009 (ip), vehicle: alkali diluted with saline) 5 of 6.
As for `CC1(C)CC(=O)C(C)(C)C(=O)C1`, the survivor count is, setting by setting: (T/C endpoint: mean survival time, dose: 200.0 mg/kg/injection, schedule: Q01DX001 (ip), vehicle: saline) 1 of 6; under setting [4], 0 of 6.
Take `COC(CN(C)Cc1c[nH]c2ccccc12)OC`: the survivor count is, setting by setting: (T/C endpoint: mean survival time, dose: 150.0 mg/kg/injection, schedule: Q01DX001 (ip), vehicle: saline) 3 of 6; (T/C endpoint: mean survival time, dose: 300.0 mg/kg/injection, schedule: Q01DX001 (ip), vehicle: saline) 1 of 6.
As to `COc1ccc(CN(CCO)CCCCCCN(CCO)Cc2ccc(OC)cc2)cc1`, the survivor count (T/C endpoint: median survival time, dose: 200.0 mg/kg/injection, schedule: Q04DX002 (ip), vehicle: saline) is 1 of 3 and the survivor count (T/C endpoint: median survival time, dose: 400.0 mg/kg/injection, schedule: Q04DX002 (ip), vehicle: saline) was 0 of 3.
For the compound `CN=C(Nc1ccc(OC)c2ccccc12)SC`, the survivor count under setting [3] was 2 of 6.
Turning to `CC1CN=C(c2ccc(NC(=O)Nc3ccc(NC(=O)c4ccc(C5=NCC(C)N5)cc4)cc3)cc2)N1` (stereo unspecified), the survivor count (T/C endpoint: mean survival time, dose: 40.0 mg/kg/injection, schedule: Q01DX Z (ip), vehicle: water) was 0 of 6; the survivor count (T/C endpoint: mean survival time, dose: 60.0 mg/kg/injection, schedule: Q01DX Z (ip), vehicle: water) is 0 of 6; the survivor count (T/C endpoint: mean survival time, dose: 90.0 mg/kg/injection, schedule: Q01DX Z (ip), vehicle: water) is 0 of 6.
On to `O=C(O/N=C(\C(=O)c1ccccc1)c1ccccc1)c1ccc(Br)cc1`, for which, under setting [5], the survivor count was 6 of 6.
In the case of `CCOC(=O)N1C2CCC1CN(C)C2`, the survivor count was 6 of 6 (T/C endpoint: mean survival time, dose: 100.0 mg/kg/injection, schedule: Q04DX003 (ip), vehicle: saline); 0 of 6 under setting [1]; 0 of 6 under setting [6].
For `CN(C)CCCCNc1ccc(NCCCCN(C)C)c2c1C(=O)c1c(O)ccc(O)c1C2=O`, under setting [7], the survivor count is given as 3 of 6.
For `Nc1ccc(/C=C/c2ccnc3ccccc23)cc1`, the survivor count (T/C endpoint: mean survival time, dose: 32.0 mg/kg/injection, schedule: Q01DX Z (ip), vehicle: saline) is 6 of 6.
Turning to `O=C1C(=O)c2ccccc2-c2ccccc21.O=C1C(=O)c2ccccc2-c2ccccc21.[Hg]`, the survivor count by setting is: (T/C endpoint: mean survival time, dose: 100.0 mg/kg/injection, schedule: Q01DX001 (ip), vehicle: saline with Tween-80) 0 of 6; under setting [8], 0 of 6; under setting [5], 0 of 6.
On to `CC(=O)Nc1cc([N+](=O)[O-])cc([N+](=O)[O-])c1O`, for which the survivor count under setting [5] was 2 of 6.
For the compound `CC(=O)Nc1ncc2ccccc2c1-c1ccc(NC(=O)CCN(CCCl)CCCl)cc1`, the survivor count is 6 of 6 (T/C endpoint: mean survival time, dose: 50.0 mg/kg/injection, schedule: Q04DX003 (ip), vehicle: other) and 6 of 6 (T/C endpoint: mean survival time, dose: 100.0 mg/kg/injection, schedule: Q04DX003 (ip), vehicle: other).
As for `CCOC(=O)c1ccc(NC(=O)Oc2ccc(NC(C)=O)cc2)cc1`, the survivor count (T/C endpoint: mean survival time, dose: 400.0 mg/kg/injection, schedule: Q04DX002 (ip), vehicle: saline with Tween-80) is 3 of 3.
Consider `COc1ccc(NC(=O)Nc2cccc([N+](=O)[O-])c2OC)cc1`, for which, for the setting “T/C endpoint: mean survival time, dose: 100.0 mg/kg/injection, schedule: Q04DX002 (ip), vehicle: saline with Tween-80”, the survivor count was 3 of 3.
Turning to `O=[N+]([O-])c1ccc(N=Nc2ccc3c(c2)-c2ccccc2C3=P(c2ccccc2)(c2ccccc2)c2ccccc2)cc1`, under setting [2], the survivor count is reported as 2 of 6.
As for `NC(=O)c1[nH]cnc1O`, the survivor count is, setting by setting: (T/C endpoint: median survival time, dose: 240.0 mg/kg/injection, schedule: Q01DX005 (ip), vehicle: saline with Tween-80) 3 of 6; under setting [9], 1 of 6; (T/C endpoint: median survival time, dose: 667.0 mg/kg/injection, schedule: Q01DX005 (ip), vehicle: saline with Tween-80) 0 of 6; (T/C endpoint: median survival time, dose: 1111.0 mg/kg/injection, schedule: Q01DX005 (ip), vehicle: saline with Tween-80) 0 of 6. For the same compound, under setting [9], the T/C was 126 % of control.
`NC(CSS(=O)(=O)O)=NCCSS(=O)(=O)O`: the survivor count under setting [6] was 0 of 6.
For `Cn1c(C[N+](C)(C)C)cc2ccccc21`, the survivor count under setting [7] was 1 of 6.
In the case of `O=C1c2ccccc2C(=O)c2cc(NS(=O)(=O)C(F)(F)F)ccc21`, the survivor count under setting [4] is reported as 0 of 6.
For `COc1cc2c(cc1OCc1ccccc1)NC(=O)C2`, the survivor count under setting [8] is given as 6 of 6.
Consider `COc1ccc2c(ccc[n+]2C)c1`, for which the T/C (T/C endpoint: mean survival time, dose: 33.0 mg/kg/injection, schedule: Q01DX009 (ip), vehicle: saline) was 127 % of control [5 of 6 alive] and the T/C (T/C endpoint: mean survival time, dose: 50.0 mg/kg/injection, schedule: Q01DX009 (ip), vehicle: alcohol) was 131 % of control. For the same compound, the survivor count (T/C endpoint: mean survival time, dose: 50.0 mg/kg/injection, schedule: Q01DX009 (ip), vehicle: saline) is on record as 2 of 6; the survivor count (T/C endpoint: mean survival time, dose: 75.0 mg/kg/injection, schedule: Q01DX009 (ip), vehicle: saline) is given as 0 of 6; the survivor count (T/C endpoint: mean survival time, dose: 100.0 mg/kg/injection, schedule: Q04DX003 (ip), vehicle: saline with Tween-80) is reported as 0 of 6; the survivor count (T/C endpoint: mean survival time, dose: 200.0 mg/kg/injection, schedule: Q04DX003 (ip), vehicle: saline with Tween-80) is reported as 0 of 6; the survivor count under setting [2] was 0 of 6.
